# Article PMC7819943, “Rice protein-binding microarrays: a tool to detect cis-acting elements near promoter regions in rice”
# The chains behind the UniProt entries cited, without tags or fusion partners.
# UniProt Q0JBA9, entry or part of it: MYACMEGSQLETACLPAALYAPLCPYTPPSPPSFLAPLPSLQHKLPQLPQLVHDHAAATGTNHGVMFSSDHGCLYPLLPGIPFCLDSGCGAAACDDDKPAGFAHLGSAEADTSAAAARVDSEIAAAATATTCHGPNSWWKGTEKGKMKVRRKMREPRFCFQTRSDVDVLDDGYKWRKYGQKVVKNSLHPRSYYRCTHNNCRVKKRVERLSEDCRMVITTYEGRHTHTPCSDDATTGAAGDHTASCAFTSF
# The list shows a part of the results.
# Biological target: OsWRKY34 (Oryza sativa, UniProt Q0JBA9 1-250)
# Assay: protein-binding microarray (RPBM); PBS, 2% BSA, 51.3 ng/ul salmon testes DNA, 50 uM zinc acetate, 200 nM TF, 25 C, 1 h; high values mean tight binding
# Conditions: protein: recombinant; tags: N-terminal polyhistidine and DsRed monomer fusion (pET32a); label: CyDye5-dUTP incorporated in the synthesized complementary strand; 3' TTTTT single-stranded linker to array surface; dsDNA, one strand shown
# Method in brief: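 Using Ni–NTA, transcription factors fused N-terminally to polyhistidine and DsRed were purified after expression in E. coli BL21-CodonPlus. These were incubated at 200 nM with a blocked, double-stranded custom Agilent array for 1 h at 25 °C in a buffer containing 50 µM zinc acetate, and the array was washed. The binding signal is per-feature fluorescence intensity (arbitrary units) on an Axon 4000B scanner.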
row,Sequence,binding signal
1,AAATCATCACACTCCCAGCATTCAATCTACTCACACACACCGGAGTCACCTAGTGCAG,8760 fluorescence intensity (a.u.)
2,GCTCGCAGCTCCGTCCATCTCGTCATGGCTGCCTCAAGCTCGGAGTCACCTAGTGCAG,9960 fluorescence intensity (a.u.)
3,TCCCTGTGTACTTCTTGTCTCCTTCCTTTTTGTTGACTCACGGAGTCACCTAGTGCAG,15600 fluorescence intensity (a.u.)
4,TTCCTTTTACTCGCTCGCTCGCTCGCTGGGTGTTCGTCCACGGAGTCACCTAGTGCAG,8220 fluorescence intensity (a.u.)
5,ACCACTTGCAGGTAGGTTGTTGCTCGTTTTAATTCCTACTCGGAGTCACCTAGTGCAG,11000 fluorescence intensity (a.u.)
6,AACTTCTCGCGTGTCCTTCTCGTACTGGGCTGGGCTGGGCCGGAGTCACCTAGTGCAG,12000 fluorescence intensity (a.u.)
7,TCATCAAATTCCTGCGTTTTTCTTGCGGTTCAATCAAACGCGGAGTCACCTAGTGCAG,10700 fluorescence intensity (a.u.)
8,ATGTTTTTTTTCTCGGTTTATCACCACTGTGTTTGTATGACGGAGTCACCTAGTGCAG,10700 fluorescence intensity (a.u.)
9,AATTAGCTTTTCTGGAGAGTTTTTGGTCAGCCATTTTTTGCGGAGTCACCTAGTGCAG,8260 fluorescence intensity (a.u.)
10,GGCTTACAATGATTTGGCCGAACAATCTACGTCTCGTCTCCGGAGTCACCTAGTGCAG,8230 fluorescence intensity (a.u.)
11,AGTTGAAATTAGTTTATTTCATCCCTGAATGTTCCTTTCTCGGAGTCACCTAGTGCAG,8050 fluorescence intensity (a.u.)
12,GATAATCCTCGCACATCTCGCTTCCCATCTCGTTTCCACCCGGAGTCACCTAGTGCAG,10700 fluorescence intensity (a.u.)
13,GCCGCGTCTTCTTGTCAACTCACCTGCTCTGCTCGTGCCCCGGAGTCACCTAGTGCAG,9920 fluorescence intensity (a.u.)
14,TATCACTATTTCATACTTAAATTTAATGCTACTTATCTCACGGAGTCACCTAGTGCAG,9260 fluorescence intensity (a.u.)
15,AATACACCAAAATCGCCGCCCAAACTCAAATTATCTTATTCGGAGTCACCTAGTGCAG,8340 fluorescence intensity (a.u.)
16,GGGGCAAAACCGTCTTTCTCCTCATCCAGCTACAGTCATCCGGAGTCACCTAGTGCAG,8560 fluorescence intensity (a.u.)
17,ACTGAAAAGTTGTGTGTGTATGACAGGTTGATGTGATGGACGGAGTCACCTAGTGCAG,8740 fluorescence intensity (a.u.)
18,TCTTGCCATCGCCGCTCCAAGCGAGCTGAACCTTCGCCGGCGGAGTCACCTAGTGCAG,8610 fluorescence intensity (a.u.)
19,CTCATAAACTTTAAACTTTTCCGTCACATCATTCTAATTTCGGAGTCACCTAGTGCAG,10200 fluorescence intensity (a.u.)
20,CACTCTGCCTCACCTCACCTCACCTCACGTCCTCACCTCCCGGAGTCACCTAGTGCAG,10300 fluorescence intensity (a.u.)
21,CTAATTCTTTGCTTAGTTTTCTGTGTCAAGAGGCCTCAAACGGAGTCACCTAGTGCAG,8250 fluorescence intensity (a.u.)

row,Sequence,binding signal
1,GGGTGGGGAAGGCCCTTTACGATCCTACAATTGTTATTAGCGGAGTCACCTAGTGCAG,12100 fluorescence intensity (a.u.)
2,TCCCAGCCGTTGGATTAGCCCTTCACCGCCGTCCAAACCCCGGAGTCACCTAGTGCAG,8110 fluorescence intensity (a.u.)
3,AACTATTTTCATCCCTCGAGGACATATCTCCTCGTTGTTTCGGAGTCACCTAGTGCAG,11100 fluorescence intensity (a.u.)
4,TGTTGCTATCGCGTCCTGCTCTGCCACCACCGTCGCCGCGCGGAGTCACCTAGTGCAG,10100 fluorescence intensity (a.u.)
5,ACTTTTTTTTAAGACAAACATGTAACCTACTCCTGTCTAACGGAGTCACCTAGTGCAG,8160 fluorescence intensity (a.u.)
6,ACCTCCTCCGCTTTCACGCAGGTCATCCATCCCACCAACTCGGAGTCACCTAGTGCAG,10500 fluorescence intensity (a.u.)
7,GTCTGACAGTGGGCCCAACCGTTTTTCCTTTTTATCCTTGCGGAGTCACCTAGTGCAG,8060 fluorescence intensity (a.u.)
8,CCTTGTACTGATCCAGCTACCTACTCCACTCCACTACCATCGGAGTCACCTAGTGCAG,8880 fluorescence intensity (a.u.)
9,GGCTGGAGAGAGAGAGGATGACAAGTGGGCCCCACAATATCGGAGTCACCTAGTGCAG,9750 fluorescence intensity (a.u.)
10,TAGTTGGAGGTCTCAAAGTGGACTTTTCCAATGGCATTTCCGGAGTCACCTAGTGCAG,8080 fluorescence intensity (a.u.)
11,GCTTCATGGATTCTTCTGCGTCTAATAATTTTCCCGTTCTCGGAGTCACCTAGTGCAG,8280 fluorescence intensity (a.u.)
12,GCTAGTGTTCTCGAGTCCAAACATTCATGGACGGTCGGGGCGGAGTCACCTAGTGCAG,9680 fluorescence intensity (a.u.)
13,CAATTTGACTCCCTCGGCAGTTTTGGATGGTGGTTTCGCTCGGAGTCACCTAGTGCAG,9020 fluorescence intensity (a.u.)
14,CGATGGCTGGAGGGGAGGCGGCGGCGCATCGTGGCGGGCGCGGAGTCACCTAGTGCAG,8030 fluorescence intensity (a.u.)
15,ATCACTTTTCTAGCATCCATATTTCTACATGCATCCTTACCGGAGTCACCTAGTGCAG,8690 fluorescence intensity (a.u.)
16,GGGTGGTTGGGTTGTGGATAGCGGCTGCGACGACGAGGGCCGGAGTCACCTAGTGCAG,10400 fluorescence intensity (a.u.)
17,TACCACTCTTTTAGTTCTTCCTAATATTTTGCCATTATAGCGGAGTCACCTAGTGCAG,9140 fluorescence intensity (a.u.)
18,CTTTTCCGTGGTGTTTTCTCGCGTGATCTGCACGCGGGTTCGGAGTCACCTAGTGCAG,9750 fluorescence intensity (a.u.)
19,TCGGCCTACCTGCTCTCTTCTCCTGCCCGGCCGATTGCTACGGAGTCACCTAGTGCAG,9780 fluorescence intensity (a.u.)
20,CCTTCCCAATTCTGCTTCAACCCCTTCTGTTTTTTTCAGACGGAGTCACCTAGTGCAG,8840 fluorescence intensity (a.u.)
21,TTTTTTTGTGCTTCCTTTATTTTTCACAACGAGAAGTTTACGGAGTCACCTAGTGCAG,8280 fluorescence intensity (a.u.)

# Part of the list above, tab-delimited.
row	Sequence	binding signal
7	GTCTGACAGTGGGCCCAACCGTTTTTCCTTTTTATCCTTGCGGAGTCACCTAGTGCAG	8060 fluorescence intensity (a.u.)
8	CCTTGTACTGATCCAGCTACCTACTCCACTCCACTACCATCGGAGTCACCTAGTGCAG	8880 fluorescence intensity (a.u.)
9	GGCTGGAGAGAGAGAGGATGACAAGTGGGCCCCACAATATCGGAGTCACCTAGTGCAG	9750 fluorescence intensity (a.u.)
10	TAGTTGGAGGTCTCAAAGTGGACTTTTCCAATGGCATTTCCGGAGTCACCTAGTGCAG	8080 fluorescence intensity (a.u.)
11	GCTTCATGGATTCTTCTGCGTCTAATAATTTTCCCGTTCTCGGAGTCACCTAGTGCAG	8280 fluorescence intensity (a.u.)
12	GCTAGTGTTCTCGAGTCCAAACATTCATGGACGGTCGGGGCGGAGTCACCTAGTGCAG	9680 fluorescence intensity (a.u.)
13	CAATTTGACTCCCTCGGCAGTTTTGGATGGTGGTTTCGCTCGGAGTCACCTAGTGCAG	9020 fluorescence intensity (a.u.)
14	CGATGGCTGGAGGGGAGGCGGCGGCGCATCGTGGCGGGCGCGGAGTCACCTAGTGCAG	8030 fluorescence intensity (a.u.)
15	ATCACTTTTCTAGCATCCATATTTCTACATGCATCCTTACCGGAGTCACCTAGTGCAG	8690 fluorescence intensity (a.u.)
16	GGGTGGTTGGGTTGTGGATAGCGGCTGCGACGACGAGGGCCGGAGTCACCTAGTGCAG	10400 fluorescence intensity (a.u.)
